Experimental data: PubChem BioAssay AID1688 (National Center for Advancing Translational Sciences (NCATS), 2009)
Hit rate of the full screen: of about 220,000 compounds, about 2,400 (1.1%) were called active. The inconclusive results got no clear call from the source; some entries with a clear call stand among them for comparison. Calls follow the shape of the dose curve; as a rule, active = well fitted inhibition curve with a large enough effect; inconclusive = small, poorly fitted or top-dose-only effect, or effect the other way; inactive = no such curve, though single readings can be large or run the other way. A potency beside an inconclusive call is a rough fit, not a confirmed value.

Test: qHTS Multiplex Assay to Identify Dual Action Probes in a Cell Model of Huntington: Aggregate Formation (GFP); also: nearly all actives have a fitted effect of over 60% in size
Conditions: PC12 HttQ103-GFP aggregates, Acumen cytometry, 40 h; activity change, negative = inhibition: at 46.1 µM (top of the series) unless noted
Outline: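 Aggregate formation scored by laser-scanning cytometer (488 excitation, 500–530 emission) in lysed PC12 cells expressing Q103-GFP after 100 nM tebufenozide induction; library tested in dose series, with ATPLite reagent added in the multiplex.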
% is scaled to controls: 0 for no effect and ±100 for the full control effect; potency is read from the fitted curve at half-maximal effect.

Row | SMILES | Potency | activity change, negative = inhibition
1 | CCOc1ccc(C(=O)CCN2CCCCCC2)cc1 | inconclusive: 25.1 µM [inhibitor, single point] | –
2 | Clc1cccc(C[n+]2cc(-c3ccccc3)n3c2CCC3)c1 | inconclusive: 20 µM [inhibitor, partial curve, poor fit] | –
3 | C=CCOc1c(Br)cc(/C=N/Nc2ccc(C(=O)O)cc2)cc1OCC | inconclusive: 2 µM [activator, single point] | –
4 | Cc1ccn2cc(-c3ccc(NS(=O)(=O)c4ccccc4)cc3)nc2c1 | – | inactive: 7.64%
5 | COc1ccc(C2CC(c3cccs3)=NN2c2ccc(F)cc2)cc1OC (stereo unspecified) | inconclusive: 35.5 µM [inhibitor, single point] | –
6 | C/C(=N\NC(=O)CCCCCNC(=O)c1ccccc1)c1ccccc1O | inconclusive: 3.16 µM [inhibitor, single point] | –
7 | CC(NC(=O)C1CCN(S(=O)(=O)c2cc([N+](=O)[O-])ccc2Cl)CC1)c1ccccc1 (stereo unspecified) | – | inactive: 0.344%
8 | CCN(CC)S(=O)(=O)c1ccc2c3c(cccc13)C(=O)S2 | inconclusive: 25.1 µM [inhibitor, single point] | –
9 | CCOC(=O)C1=C(c2ccccc2)NC(SCC(=O)Nc2ccccc2C)=C(C#N)C1c1ccco1 (stereo unspecified) | inconclusive: 1 µM [inhibitor, partial curve] | –
10 | Cc1[nH]nc(-c2ccc(O)c(C)c2O)c1Oc1ccccc1 | – | inactive: 6.28%
11 | CC(=O)c1sc(NC(=O)C2(F)C(F)(F)C(F)(F)C(F)(F)C(F)(F)C2(F)F)nc1C | active: 1.41 µM | –
12 | COc1ccc2cc(CN(Cc3cccs3)Cc3nnnn3Cc3ccccc3)c(=O)[nH]c2c1 | inconclusive: 35.5 µM [inhibitor, single point] | –
13 | O=C(NCCc1cccc(Cl)c1)c1cccs1 | inconclusive: 35.5 µM [inhibitor, single point] | –
14 | CC(/C=N/NC(=O)Cc1cccn1C)=C\c1ccco1 | inconclusive: 35.5 µM [activator, single point] | –
15 | CC(=O)Nc1sc2c(c1C(c1ccncc1)N1CCOCC1)CCCC2 (stereo unspecified) | – | inactive: 6.78%
16 | CCOc1ccc(Nc2ncnc3ccc([N+](=O)[O-])cc23)cc1 | active: 7.94 µM | –
17 | O=C1CC(c2ccccc2)CN1C(=O)c1cccc([N+](=O)[O-])c1 (stereo unspecified) | inconclusive: 0.562 µM [inhibitor, full curve, poor fit] | –
18 | COc1cccc(NC(=S)N(CCCN2CCOCC2)Cc2cn(C)c3ccccc23)c1 | active: 11.2 µM | –
19 | CCOc1ccc(NC(=O)CNc2ccc(C)cc2Cl)cc1 | – | inactive: -1.96%
20 | O=C(NCc1ccco1)c1ccc(COc2cc(Cl)ccc2Cl)cc1 | – | inactive: -4.81%
21 | O=C1NC(Nc2nc3ccccc3s2)(C(F)(F)F)C(=O)N1C1CCCCC1 (stereo unspecified) | inconclusive: 3.55 µM [inhibitor, single point] | –
22 | CC1(C)CC(=O)C2=C(C1)OC(/N=C/N1CCOCC1)=C(C#N)C2c1ccccc1 (stereo unspecified) | – | inactive: -3.39%
23 | O=C(C1CC1c1ccccc1)N1CCN(c2cccc(Cl)c2)CC1 (stereo unspecified) | – | inactive: -10.9%
24 | S=c1[nH]nc(-c2ccncc2)n1Cc1ccco1 | – | inactive: -8.94%
25 | CCOC(=O)c1c(NC(=O)Cn2cnc3scc(-c4ccc(C)cc4)c3c2=O)sc(C)c1C | inconclusive: 6.31 µM [inhibitor, single point] | –
26 | Cc1ccc(NC(=O)/C=C/c2cccs2)c([N+](=O)[O-])c1 | inconclusive: 5.62 µM [inhibitor, single point] | –

Full records, quoted from the list. Values in the order: Potency	activity change, negative = inhibition
`O=C(NCCc1cccc(Cl)c1)c1cccs1` as listed: inconclusive: 35.5 µM [inhibitor, single point]	–
`CC(=O)Nc1sc2c(c1C(c1ccncc1)N1CCOCC1)CCCC2` (stereo unspecified) as listed: –	inactive: 6.78%
`O=C1NC(Nc2nc3ccccc3s2)(C(F)(F)F)C(=O)N1C1CCCCC1` (stereo unspecified) as listed: inconclusive: 3.55 µM [inhibitor, single point]	–

(next part)

Row | SMILES | Potency | activity change, negative = inhibition
27 | COc1ccc(C2=C(CN(C)C)C(c3ccccc3)c3ccccc3O2)cc1 (stereo unspecified) | inconclusive: 15.8 µM [inhibitor, single point] | –
28 | COCCNC(=O)c1csc2c1CCCC2 | inconclusive: 6.31 µM [activator, single point] | –
29 | CC(C)(C)c1cc(=O)[nH]c(SCc2ccccc2)n1 | – | inactive: -3.11%
30 | CCOC(=O)c1ccc(NC(c2ccc(N(C)C)cc2)P(=O)(OC(C)C)OC(C)C)cc1 (stereo unspecified) | – | inactive: -18%
31 | CC(=O)N(C)c1ccc(C(O)(C(F)(F)F)C(F)(F)F)cc1 | – | inactive: 9.94%
32 | COc1ccccc1OCCn1cc(C#N)c2ccccc21 | – | inactive: -17.6%
33 | O=c1[nH][nH]c(-c2ccccc2O)c1C(C[N+](=O)[O-])c1ccccc1 (stereo unspecified) | inconclusive: 25.1 µM [inhibitor, single point] | –
34 | CC1(C)SCC(C(=O)O)NC1=O (stereo unspecified) | inconclusive: 0.562 µM [activator, full curve, poor fit] | –
35 | Cc1cccc(Oc2ccc(S(=O)(=O)N3CCCCC3)cc2N)c1 | inconclusive: 35.5 µM [inhibitor, single point] | –
36 | O=S(=O)(c1cccs1)N1CCN(CC(O)COc2cc(Cl)ccc2Cl)CC1 (stereo unspecified) | inconclusive: 10 µM [inhibitor, partial curve] | –
37 | CCCCC(=O)Nc1ccc(NC(=S)NC(=O)CC(C)C)cc1OC | – | inactive: -4.69%
38 | CCOc1cccc(-c2nnc3sc(-c4ccco4)nn23)c1 | – | inactive: -14.1%
39 | Clc1ccc(CSc2nnc(-c3ccccn3)n2Cc2ccco2)c(Cl)c1 | inconclusive: 31.6 µM [inhibitor, single point] | –
40 | CCOC(=O)c1cnc(SC)nc1Nc1cccc(F)c1 | inconclusive: 12.6 µM [inhibitor, single point] | –
41 | COCCCNS(=O)(=O)c1ccc2c(c1)OCCO2 | – | inactive: -2.64%
42 | O=C1c2ccccc2C(=O)N1CCSc1ncn[nH]1 | – | inactive: 7.62%
43 | CC(C)(C)[C@]1(O)CCN2C[C@H]3c4ccccc4CCc4cccc(c43)[C@@H]2C1 | inconclusive: 25.1 µM [inhibitor, single point] | –
44 | Cn1ncc(N=Cc2ccccc2)c1C(=O)Nc1cccc(Cl)c1 | – | inactive: -6.31%
45 | NNC(=O)c1ccc(CSc2nc3ccccc3s2)cc1 | inconclusive: 20 µM [inhibitor, single point] | –
46 | CSc1nc(Oc2ccc3ccccc3c2)c2sccc2n1 | inconclusive: 11.2 µM [inhibitor, partial curve] | –
47 | COc1ccc(CCN2C(=O)C3C4C=CC(C3C2=O)C2C(=O)N(CCc3ccc(OC)c(OC)c3)C(=O)C42)cc1OC (stereo unspecified) | active: 10 µM | –
48 | CCOC(=O)C1=C(N)N2C(=O)C(C)SC2=C(C(=O)OCC)C1c1ccccc1 (stereo unspecified) | inconclusive: 35.5 µM [activator, single point] | –
49 | FC(F)(F)c1ccc(N2CCN(c3ncnc4c3nnn4Cc3ccccc3)CC2)nc1 | inconclusive: 0.562 µM [inhibitor, full curve, poor fit] | –
50 | O=[N+]([O-])c1ccc(O)c(/C=N/Nc2nc3ccccc3[nH]2)c1 | inconclusive: 0.562 µM [inhibitor, full curve] | –
51 | Cc1nn(C(C)C(=O)Nc2ccc(Cl)cn2)c(C)c1[N+](=O)[O-] (stereo unspecified) | – | inactive: -8.62%
52 | S=C(NCc1cccnc1)Nc1ccc(Cl)c(Cl)c1 | inconclusive: 1.26 µM [inhibitor, single point] | –

Row | SMILES | Potency | activity change, negative = inhibition
53 | CCOC(=O)c1oc2ccccc2c1NC(=O)c1cccc(OC)c1OC | inconclusive: 25.1 µM [inhibitor, single point] | –
54 | COc1ccc(CCNc2cc(N3CCN(C(=O)c4ccc(C)cc4)CC3)ccc2[N+](=O)[O-])cc1OC | – | inactive: -10.1%
55 | CC(/C=C/c1ccco1)=N\NC(=O)C(O)c1ccccc1 (stereo unspecified) | inconclusive: 0.501 µM [inhibitor, partial curve, poor fit] | –
56 | c1ccc2c(c1)OCC(c1csc3ncnc(N4CCOCC4)c13)O2 (stereo unspecified) | active: 12.6 µM | –
57 | NC(=O)C1CCN(C(=O)c2ccc(Oc3ccccc3)cc2)CC1 | inconclusive: 20 µM [inhibitor, partial curve] | –
58 | CCCN1C(=O)C(NC(C)=O)c2ccccc21 (stereo unspecified) | – | inactive: 29.3%
59 | N#Cc1ccc2ccn(CC(=O)NCc3ccccc3)c2c1 | inconclusive: 0.562 µM [inhibitor, full curve, poor fit] | –
60 | O=C(Nc1nc(-c2ccccn2)cs1)c1ccc(Cl)s1 | active: 0.891 µM | –
61 | COc1ccc2nc(SCc3cnc(C)nc3N)[nH]c2c1 | inconclusive: 35.5 µM [inhibitor, single point] | –
62 | COc1ccc(CNc2nc(SCC(=O)NCc3ccco3)nc3ccccc23)cc1 | – | inactive: -4.15%
63 | O=C(O)c1ccc(Cl)c2c1C1C=CCC1C(c1ccccn1)N2 (stereo unspecified) | – | inactive: -7.29%
64 | CCOCCCNC(C(=O)Nc1ccc(OC)c(Cl)c1)c1ccccc1 (stereo unspecified) | – | inactive: 3.04%
65 | Cc1ccc(N(C(=O)CCl)C(C(=O)NC2CCCCC2)c2cccnc2)cc1C (stereo unspecified) | active: 3.55 µM | –
66 | COc1ccc(C2CC(c3c(O)cc(C)oc3=O)=NCCS2)c(OC)c1 (stereo unspecified) | inconclusive: 14.1 µM [activator, partial curve] | –
67 | O=C(Cn1cc2c(n1)CCCC2)NCc1cccnc1 | inconclusive: 1.26 µM [inhibitor, single point] | –
68 | CCN(CC)c1nc(OCCNC(=O)Nc2ccccc2)nc(N(CC)CC)n1 | inconclusive: 35.5 µM [inhibitor, single point] | –
69 | O=C1OC(/C(=C\Nc2ccc(F)cc2F)[N+](=O)[O-])c2ccccc21 (stereo unspecified) | inconclusive: 14.1 µM [inhibitor, single point] | –
70 | Clc1cccc(Cl)c1Cn1cnc2c(NCc3ccco3)ncnc21 | inconclusive: 35.5 µM [activator, partial curve] | –
71 | C=CCNC(=S)Nc1nc2c(cc1C(=O)OCC)CCCC2 | inconclusive: 3.16 µM [activator, single point] | –
72 | CS(=O)(=O)N(CC(=O)N1CCN(c2ccccc2F)CC1)C1CCCCC1 | – | inactive: -9.93%
73 | Fc1ccccc1Cc1noc(CN2CCC(OCc3cccnc3)CC2)n1 | inconclusive: 5.62 µM [activator, single point] | –
74 | N#Cc1nc(-c2ccc(Cl)cc2)oc1N1CCCCC1 | inconclusive: 35.5 µM [inhibitor, single point] | –
75 | O=C(O)Cc1csc(Nc2cccc(Cl)c2)n1 | – | inactive: -13.6%
76 | CCc1ccc(OCC(=O)NC(NC(=S)Nc2ccccc2C)C(Cl)(Cl)Cl)cc1 (stereo unspecified) | – | inactive: -12.1%
